Screening data, single-dose tests

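Whole-parasite assay of Trypanosoma brucei over 72 hours; the read-out is not stated. Compounds at 30 µM. Direction is inferred from retests: higher values go with stronger inhibition. Values scatter widely below zero; nearly all retest evidence comes from the higher of the two concentrations used. Size under these conditions: about 64,000 compounds, about 940 of them at 50% or above in at least one test.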

Results are given as percent effect. How 0% and 100% were set is not recorded. Most values in the screen are low, and negative values occur. Compounds were drawn at random from those tested, without regard to their results.

structure: Nc1cc(N2CCCC(COc3ccc(F)cc3)C2)nc(N)n1 (stereo not shown)
Percent Effect: -50.84%

structure: O=C(O)C(F)(F)F.[H][C@]12CCN(Cc3c(C)noc3C)[C@@]1([H])CC[C@H](COCC)O2
Percent Effect: 30.23%

structure: COc1ccc(N)c(N2CCN(C(C)=O)CC2)n1
Percent Effect: -30.22%

structure: [H][C@]12CC[C@]([H])(CN(C(=O)Cn3c(C)cc(C)nc3=O)C1)N(CC1CCC1)C2
Percent Effect: -2.727%

structure: Cc1c(C(=O)NC2(C#N)CCSC2)cnn1-c1ccccc1Cl (stereo not shown)
Percent Effect: 18.04%

structure: Cc1nc(C2CCN(C(=O)c3cnc(N(C)C)nc3)CC2)c2sccn12
Percent Effect: -8.278%

structure: CN(Cc1ccccc1CN1CCCC1)C(=O)c1c[nH]c(=O)[nH]1
Percent Effect: -16.49%

structure: CC(C)CCN1CCCC(Cn2cc(CCO)nn2)C1 (stereo not shown)
Percent Effect: -12.89%

structure: COc1cccc(C(=O)N2CCOCC2CN(C)C)c1OC.O=CO (stereo not shown)
Percent Effect: 14.43%

structure: Cc1nc(-c2nc(C(=O)NC3CC3)c3ccccn23)cn1C(C)C
Percent Effect: 7.293%

structure: CC(C)=Cc1c(-c2ccccc2)ncn1CCS(C)(=O)=O
Percent Effect: 1.762%

structure: CC(C)N1CCC(Nc2ccn(Cc3ccccn3)n2)C1=O (stereo not shown)
Percent Effect: -5.418%

structure: COCC(=O)N1CCCn2c(CN3CCCC3)nnc2C1
Percent Effect: -24.74%

structure: CC(C)=CCC1(CO)CCCN(S(=O)(=O)N2CCCC2)C1 (stereo not shown)
Percent Effect: 14.34%

structure: NC(=O)c1cnn2c1NCC(CNC1(c3ccccc3)CCC1)C2 (stereo not shown)
Percent Effect: -24.81%

structure: CN(Cc1ccc(F)cc1)C(=O)CN1CCOC(Cn2cncn2)C1 (stereo not shown)
Percent Effect: -63.17%

structure: CNc1nc(C(=O)NCC2CCOc3ccccc3C2)cs1 (stereo not shown)
Percent Effect: -9.134%

structure: CCc1nnc2n1CCN(C(=O)c1ccc3cc[nH]c3c1)C2
Percent Effect: 14.09%

structure: CCN1CC2(CCN(CC3COCCO3)CC2)OC1=O (stereo not shown)
Percent Effect: -69.56%

structure: O=C(O)C(F)(F)F.[H][C@@]12CC(=O)N(CCN(C)C)[C@@]1([H])CCN2S(=O)(=O)c1ccccc1
Percent Effect: -21.41%

structure: c1ccc(-c2nc(CN3CCOC(Cn4cccn4)C3)co2)cc1 (stereo not shown)
Percent Effect: -12.86%

structure: CS(=O)(=O)c1ccc(NC(=O)NCc2ccc3c(c2)CCC3)cn1
Percent Effect: -21.18%

structure: C[C@@H]1CN(CCc2ccccc2)C[C@]12CCN(CC(=O)N(C)C)C2=O.O=C(O)C(F)(F)F
Percent Effect: -6.764%

structure: Cc1nc(CNC(=O)NC2CCN(c3cccc(Cl)c3)C2)no1 (stereo not shown)
Percent Effect: 5.032%

structure: Clc1cccc(C(CNCc2ccccn2)N2CCOCC2)c1 (stereo not shown)
Percent Effect: -58.47%

structure: OC(COCc1ccco1)CSc1nnc2ccccn12 (stereo not shown)
Percent Effect: -18.97%

structure: O=C(NC1CCCN(c2ccc(OC(F)F)cc2)C1)c1cc[nH]n1 (stereo not shown)
Percent Effect: -12.31%

structure: CC(CC#N)N(C)Cc1ccc(F)cc1C#N (stereo not shown)
Percent Effect: -14.74%

structure: COc1cc2ccn(CCCO)c(=O)c2cc1F
Percent Effect: -11.52%

structure: O=C(Cn1cc(C2CC2)nn1)NC(c1ccc(Cl)cc1)C1CC1 (stereo not shown)
Percent Effect: -14.67%

structure: COCC(=O)N1Cc2c(-c3cccc(C)c3)nc(N)nc2C1C (stereo not shown)
Percent Effect: -11.02%

structure: COC(=O)c1ccc(N2CCN(C(=O)C3CCC3)C(C)C2)cc1 (stereo not shown)
Percent Effect: 50.56%

structure: CCN(CC)C(=O)CSc1sc2c(O)cc(=O)[nH]c2c1C(N)=O
Percent Effect: -24.88%

structure: Cc1nccc(CN2CCC(c3nnsc3S(C)(=O)=O)CC2)n1
Percent Effect: 10.71%

structure: COc1ccc(Cl)cc1C(C(=O)O)N(C)Cc1ccon1 (stereo not shown)
Percent Effect: -61.32%

structure: Cc1cc(C(=O)N2CCCC(c3nccn3Cc3cscn3)C2)on1 (stereo not shown)
Percent Effect: -15.98%

structure: Cc1nc[nH]c1CN1CCCC(CNC(=O)c2ccncn2)C1 (stereo not shown)
Percent Effect: -30.59%

structure: O=C1NCCN(Cc2cccnc2)C1CC(=O)N1CCc2n[nH]cc2C1 (stereo not shown)
Percent Effect: -77.31%

structure: Cc1cc2c(cc1NC(N)=O)OCO2
Percent Effect: -18.06%

Source: ChEMBL document CHEMBL3988442, “University of Dundee, Small-Polar-MMV Screening Library” (2021).